Results: publication PMC8755082, “Recognition of G-quadruplex RNA by a crucial RNA methyltransferase component, METTL14”

Test system: METTL3 MTD (MTD3) + METTL14 MTD-RGG (MTD14-RGG)
Assay: EMSA
Conditions: Li+ buffer (G4 not formed); EMSA: 2.5 nM RNA, 10 mM potassium (or lithium) phosphate pH 7.5, 25 uM ZnCl2, 10 uM SAM, 0.5 mM DTT, 0.005% Tween 20, 2.5% ficoll, 50 ng/uL yeast tRNA, 4 C, 1 h; recombinant protein; protein details: Strep-tag II,His6; label: 5' FAM

UUAGGGUUAGGGUUUUAGACAUUUUUUAGGGUUAGGG [G4 RNA1]
Kd: 131 nM

The exact form of at least one protein or probe is not confirmed.
